PubChem BioAssay AID1259425 | University of Nebraska Medical Center – 2018
Assay: 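Seek colon cancer weak points whose silencing resembles KSR1 loss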 (primary screen). Cells: HCT116 human colon cancer cells. Knock-down reagent: siRNA pool against human genes, 50 nM siRNA. Read-out: 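After 50 nM siRNA pool, branched-DNA assay measures six marker transcripts per well, minus blank, normalised to the geometric mean of two housekeeping transcripts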. Scale: BNIP3L mRNA: higher = more BNIP3L transcript after knockdown; NDRG1 mRNA: higher = more NDRG1 transcript after knockdown.
The whole screen tested about 14,000 reagents; this is a part drawn at random. Not all columns of the deposit are shown. Not given: the time to read-out.

| Target gene | BNIP3L mRNA, set 1 | NDRG1 mRNA, set 1 |
| --- | --- | --- |
| FZD8 | 0.103 | 0.245 |
| COL9A1 | 0.0998 | 0.755 |
| TOR1B | 0.15 | 0.469 |
| CAB39L | 0.0675 | 0.243 |
| PEX2 | 0.0905 | 0.0888 |
| KCNA3 | 0.16 | 0.189 |
| MAGEB1 | 0.0943 | 0.101 |
| ZWILCH | 0.127 | 0.173 |
| SURF6 | 0.151 | 0.352 |
| SLC25A2 | 0.194 | 0.251 |
| BCHE | 0.0766 | 0.106 |
| BYSL | 0.151 | 0.166 |
| DTYMK | 0.0805 | 0.225 |
| ZNF264 | 0.199 | 0.286 |
| CDCA7 | 0.15 | 0.266 |
| GLRA3 | 0.0823 | 0.101 |
| NTN4 | 0.154 | 0.103 |
| LTBP1 | 0.122 | 0.223 |
| TNFRSF14 | 0.136 | 0.216 |
| EIF4H | 0.0934 | 0.0885 |
| DOT1L | 0.113 | 0.192 |
| TNFRSF19 | 0.113 | 0.0885 |
| NDFIP1 | 0.123 | 0.202 |
| BCAP29 | 0.107 | 0.279 |
| APOL3 | 0.0555 | 0.154 |
| SCN1A | 0.131 | 0.0522 |
| TJP2 | 0.136 | 0.313 |
| NELL1 | 0.101 | 0.136 |
| RBM11 | 0.242 | 0.0737 |
| SELL | 0.135 | 0.174 |
| PER2 | 0.0352 | 0.136 |
| MTR | 0.12 | 0.338 |
| PSMB7 | 0.733 | 1.77 |
| YWHAE | 0.0372 | 0.729 |
| ZNF45 | 0.159 | 0.142 |
| LRRC8A | 0.107 | 0.325 |
| OR2K2 | 0.102 | 0.277 |
| CRKL | 0.0454 | 0.432 |
| BBX | 0.13 | 0.226 |
| TIMCC | 0.669 | 0.704 |
| CYRIB | 0.121 | 0.0657 |
| PAICS | 0.158 | 0.289 |
| AK1 | 0.117 | 0.229 |
| ALOX12B | 0.0872 | 0.23 |
| RIBC2 | 0.235 | 1.74 |
| GMNN | 0.188 | 0.285 |
| RNF13 | 0.0828 | 0.114 |
| CARD19 | 0.158 | 0.202 |
| PIP5KL1 | 0.177 | 0.134 |
| NIPA2 | 0.0436 | 0.106 |
| GAGE6 | 0.0978 | 0.112 |
| DYNLRB1 | 0.0711 | 0.115 |
| BICC1 | 0.217 | 0.508 |
| NCAPG2 | 0.111 | 0.109 |
| ANKK1 | 0.137 | 0.0952 |
| SDHB | 0.0523 | 0.186 |
| KCMF1 | 0.107 | 0.326 |
| AQP8 | 0.0648 | 0.165 |
| N4BP2L1 | 0.104 | 0.148 |
| CEACAM3 | 0.122 | 0.0754 |
| SRC | 0.126 | 0.0638 |
| TMX4 | 0.106 | 0.0882 |
| FBXO9 | 0.0455 | 0.754 |

Records listed so far whose gene name begins with S or s (6):
| Target gene | BNIP3L mRNA, set 1 | NDRG1 mRNA, set 1 |
| --- | --- | --- |
| SURF6 | 0.151 | 0.352 |
| SLC25A2 | 0.194 | 0.251 |
| SCN1A | 0.131 | 0.0522 |
| SELL | 0.135 | 0.174 |
| SDHB | 0.0523 | 0.186 |
| SRC | 0.126 | 0.0638 |
